Source: article doi:10.1101/2024.09.17.613558
The exact form of at least one protein or probe is not confirmed. At least one verdict rests on a figure or table, not on a statement of the authors. Where a protein sequence is shown, tags need not be part of it.

Experiments:
[1] = biological target: T1, FLAG-ZRANB3 (UniProt Q5FWF4); test: EMSA; settings: 0-100 nM protein, 1 nM DNA
T1 sequence (looked up, limits assumed): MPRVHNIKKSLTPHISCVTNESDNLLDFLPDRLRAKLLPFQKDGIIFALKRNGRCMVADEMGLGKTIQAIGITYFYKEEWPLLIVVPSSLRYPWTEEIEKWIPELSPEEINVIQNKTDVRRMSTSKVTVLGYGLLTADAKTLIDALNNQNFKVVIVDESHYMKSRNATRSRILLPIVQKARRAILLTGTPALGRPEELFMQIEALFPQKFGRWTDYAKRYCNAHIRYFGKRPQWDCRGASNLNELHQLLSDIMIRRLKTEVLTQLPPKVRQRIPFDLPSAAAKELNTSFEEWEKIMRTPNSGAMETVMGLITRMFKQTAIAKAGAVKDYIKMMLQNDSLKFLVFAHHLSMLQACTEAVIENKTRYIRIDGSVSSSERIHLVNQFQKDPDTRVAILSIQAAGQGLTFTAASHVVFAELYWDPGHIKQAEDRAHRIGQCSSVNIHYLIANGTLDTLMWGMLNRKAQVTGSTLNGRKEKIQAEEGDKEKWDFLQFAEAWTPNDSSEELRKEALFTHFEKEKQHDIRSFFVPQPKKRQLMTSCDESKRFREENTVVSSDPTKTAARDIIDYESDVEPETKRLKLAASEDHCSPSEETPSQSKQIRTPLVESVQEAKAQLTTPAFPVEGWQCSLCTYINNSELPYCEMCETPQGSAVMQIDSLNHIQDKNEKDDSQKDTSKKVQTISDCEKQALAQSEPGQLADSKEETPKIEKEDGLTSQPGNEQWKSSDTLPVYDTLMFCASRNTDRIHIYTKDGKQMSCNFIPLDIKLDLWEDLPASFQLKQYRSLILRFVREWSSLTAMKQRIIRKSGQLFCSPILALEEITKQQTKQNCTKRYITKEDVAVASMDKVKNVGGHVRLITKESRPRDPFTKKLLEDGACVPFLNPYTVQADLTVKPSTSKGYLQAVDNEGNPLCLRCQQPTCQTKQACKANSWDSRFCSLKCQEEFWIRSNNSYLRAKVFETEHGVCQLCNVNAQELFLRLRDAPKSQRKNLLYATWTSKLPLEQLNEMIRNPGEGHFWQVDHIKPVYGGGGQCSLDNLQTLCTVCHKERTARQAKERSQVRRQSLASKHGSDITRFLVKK

[2] = biological target: T2, FLAG-SMARCAL1 (UniProt Q9NZC9); test: EMSA; settings: 0-100 nM protein, 1 nM DNA
T2 sequence (looked up, limits assumed): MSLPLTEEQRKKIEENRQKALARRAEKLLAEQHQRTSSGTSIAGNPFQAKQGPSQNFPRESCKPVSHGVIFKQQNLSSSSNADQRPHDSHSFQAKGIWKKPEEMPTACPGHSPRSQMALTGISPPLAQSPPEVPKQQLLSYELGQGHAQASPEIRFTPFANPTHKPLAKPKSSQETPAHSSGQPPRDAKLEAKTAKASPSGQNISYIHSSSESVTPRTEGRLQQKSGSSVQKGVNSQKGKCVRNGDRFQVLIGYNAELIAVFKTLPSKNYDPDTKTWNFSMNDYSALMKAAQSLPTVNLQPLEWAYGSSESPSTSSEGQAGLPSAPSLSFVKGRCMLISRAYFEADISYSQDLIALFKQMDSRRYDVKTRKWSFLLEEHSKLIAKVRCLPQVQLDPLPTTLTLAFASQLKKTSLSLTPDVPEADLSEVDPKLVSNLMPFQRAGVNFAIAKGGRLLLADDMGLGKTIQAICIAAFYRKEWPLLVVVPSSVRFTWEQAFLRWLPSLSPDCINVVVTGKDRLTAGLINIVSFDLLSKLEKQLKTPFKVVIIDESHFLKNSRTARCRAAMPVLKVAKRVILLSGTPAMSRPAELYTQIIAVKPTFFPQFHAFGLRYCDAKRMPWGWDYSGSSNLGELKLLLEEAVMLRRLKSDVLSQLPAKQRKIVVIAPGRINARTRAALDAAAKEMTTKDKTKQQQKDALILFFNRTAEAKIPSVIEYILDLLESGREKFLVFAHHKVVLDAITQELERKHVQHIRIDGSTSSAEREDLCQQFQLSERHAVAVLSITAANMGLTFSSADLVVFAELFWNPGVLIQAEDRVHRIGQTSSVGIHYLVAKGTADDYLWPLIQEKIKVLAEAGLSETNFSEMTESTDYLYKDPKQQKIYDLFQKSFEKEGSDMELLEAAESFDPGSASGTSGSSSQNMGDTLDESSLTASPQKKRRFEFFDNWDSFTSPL

Sequence	binding result [1]	binding result [2]
CGTGACTTGATGTTAACCCTAACCCTAAGATATCGCGTTATCAGAGTGTGAGGATACATGTAGGCAATTGCCACGTGTCTATCAGCTGAAGTTGTTCGCGACGTGCGATCGTCGCTGCGACG / CGTCGCAGCGACGATCGCACGTCGCGAACAACTTCAGCTGATAGACACGTGGCAATTGCCTACATGTATCCTCACACTCTGAATACGCGATATCTTAGGGTTAGGGTTAACATCAAGTCACG / TCAGAGTGTGAGGATACATGTAGGCAATTGCCACGTGTCTATCAGCTGAAGTTGTTCGCGACGTGCGATCGTCGCTGCGACG [fork, leading ssDNA arm, no lesion (Lead 122/Lag 122/Lag 82)]	binds	binds
GCACCCTAAGATATCGCGTTGTCAGAGTGTGAGGATACATGTGGGCAATTGCCACGTGTCCG / CGGACACGTGGCAATTGCCTACATGTATCCTCACACTCTGATAACGCGATATCTTAGGGTGC / CGGACACGTGGCAATTGCCCACATGTATCCTCACACTCTGAC / ATCAGAGTGTGAGGATACATGTAGGCAATTGCCACGTGTCCG [fork, no biotin (Lag N42/Lag P62/Lead N42/Lead P62)]	binds	binds
